Results: patent US20040005688A1
Results are given in words; binding and its absence hold for the method and conditions named. For part of these data: Binding seen in cells or lysates may run through a third protein. Some binding calls cover weakened binding; strength is not graded here. For part of these data: Sequences can lack the tags named with a protein.

How the values were obtained:
[1] = target: GST-fusion protein containing the middle region of Dsh (GST-DM) (Drosophila) (UniProt P51140); assay: GST pull-down from lysates, in vitro kinase assay
[2] = target: Dishevelled (Dsh) protein, endogenous, from Drosophila embryos and Clone-8 cells (Drosophila) (UniProt P51140); assay: co-immunoprecipitation with endogenous Dsh
[3] = target: Dishevelled (Dsh) protein, endogenous, from Drosophila embryos and Clone-8 cells (Drosophila) (UniProt P51140); assay: co-immunoprecipitation from Clone-8 cells, Western blot
[4] = target: T1, GST-DM5 (GST fusion of the 36 amino acid DM5 segment of Dsh, amino acids 214-249) (Drosophila); assay: GST-DM5 affinity chromatography; activity eluted in a 0.2 to 0.6 M NaCl gradient
T1 sequence: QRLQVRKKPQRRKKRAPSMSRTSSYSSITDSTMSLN

[5] = target: T1, GST-DM5 (GST fusion of the 36 amino acid DM5 segment of Dsh, amino acids 214-249) (Drosophila); assay: restatement of Example 2
[6] = target: Dishevelled (Dsh) protein, endogenous, from Drosophila embryos and Clone-8 cells (Drosophila) (UniProt P51140); assay: restatement of earlier examples
[7] = target: T1, GST-DM5 (GST fusion of the 36 amino acid DM5 segment of Dsh, amino acids 214-249) (Drosophila); assay: GST pull-down with segments of the DM region, in vitro kinase assay
[8] = target: Dishevelled (Dsh) protein, endogenous, from Drosophila embryos and Clone-8 cells (Drosophila) (UniProt P51140); assay: co-immunoprecipitation with endogenous Dsh, high salt elution
[9] = target: GST-fusion protein containing the middle region of Dsh (GST-DM) (Drosophila) (UniProt P51140); assay: GST pull-down, in vitro kinase assay
[10] = target: GST-fusion protein containing the middle region of Dsh (GST-DM) (Drosophila) (UniProt P51140); assay: GST pull-down from lysates, and re-binding of kinase eluted from Dsh immuno-complex; in vitro kinase assay
[11] = target: T1, GST-DM5 (GST fusion of the 36 amino acid DM5 segment of Dsh, amino acids 214-249) (Drosophila); assay: GST-DM5 precipitation, in vitro kinase assay
[12] = target: Dishevelled (Dsh) protein, endogenous, from Drosophila embryos and Clone-8 cells (Drosophila) (UniProt P51140); assay: summary of Examples 1 and 2

Measured: binding

B1: Dishevelled Associated Kinase (DAK), endogenous kinase activity from Drosophila embryo and Clone-8 cell lysates (enzyme)
chain: MSTAMRTTLQSVPEALPADSVSNGTASNVAAPAAPVSSATNAVPPLAAVSSTTATYATNSISTSSHSVKDQQQQQQQQQHDSANANIVSLPPTTTPVANTNTMMPIVTSSNSATSNSTAATPTPASGAAATGGVGSVSQGPATVSASAANTNHSHQHSHQHHHHVANNMTTDGARLSSNNSAVVASSAINHHHHHTPGSGVAPTVNKNVLSTHSAHPSAIKQRTSSAKGSPNMQMRSSAPMRWRATEEHIGKYKLIKTIGKGNFAKVKLAKHLPTGKEVAIKIIDKTQLNPGSLQKLFREVRIMKMLDHPNIVKLFQVIETEKTLYLIMEYASGGEVFDYLVLHGRMKEKEARVKFRQIVSAVQYCHQKRIIHRDLKAENLLLDSELNIKIADFGFSNEFTPGSKLDTFCGSPPYAAPELFQGKKYDGPEVDVWSLGVILYTLVSGSLPFDGSTLRELRERVLRGKYRIPFYMSTDCENLLRKFLVLNPAKRASLETIMGDKWMNMGFEEDELKPYIEPKADLADPKRIEALVAMGYNRSEIEASLSQVRYDDVFATYLLLGRKSTDPESDGSRSGSSLSLRNISGNDAGANAGSASVQSPTHRGVHRSISASSTKPSRRASSGAETLRVGPTNAAATVAAATGAVGAVNPSNNYNAAGSAADRASVGSNFKRQNTIDSATIKENTARLAAQNQRPASATQKMLTTADTTLNSPAKPRTATKYDPTNGNRTVSGTSGIIPRRSTTLYEKTSSTEKTNVIPAETKMASAVKSSRHFPRNVPSRSTFHSGQTRARNNTALEYSGTSGASGDSSHPGRMSFFSKLSSRFSKRPNQ
binds: all assays above
